Our source for the IC50 values is patent US20050250853A1, “Beta-tubulin inhibitors” (priority 1999, published 2005).

What all share (type): cell-based, Chinese hamster
Experiment [1] deals with CHO 10001 cells (wild-type). Briefly: MTT cytotoxicity on wild-type CHO cells. As to conditions: Cricetulus griseus, CHO10001, 120 h, read-out: IC50 CHO 10001. On the procedure:
(§1) Human breast carcinoma cell line, MDA-MB-231, was obtained from the American Type Culture Collection (ATCC HTB-26; Bethesda, Md.). MDA-MB-231 cells were grown in RPMI 1640 medium supplemented with 10% bovine calf serum (Hyclone, Road Logan, Utah). […] These cells were cultured in RPMI 1640 containing 10% fetal bovine serum. SK—N—SH human neuroblastoma cells, (ATCC HTB-11; Bethesda, Md.) were cultured in MEM medium supplemented with 2 mM L-glutamine, 1.5 g/liter sodium bicarbonate, 0.1 mM non-essential amino acids, 1 mM sodium pyruvate and 10% fetal bovine serum. Cells were cultured in a humidified atmosphere at 37° C. in 5% CO2.
(§2) Cytotoxicity was assessed using the MTT assay (3-(4,5-dimethylthiazol-2-yl)-2,5-diphenyltetrazolium bromide) as described by Carmichael et al. (12).
(§3) The cytotoxicity of 4-tBCEU, 4-iPCEU and 4-sBCEU in two CHO cell lines having differential sensitivity to antmicrotubule agents was evaluated. These cell lines are derived from parental CHO-10001 cells and express mutated tubulins.

For another experiment, the system named is CHO TAX 5-6 cells. The experiment is described as follows: MTT cytotoxicity on taxol-resistant CHO cells expressing mutated tubulin. To be noted: Cricetulus griseus, CHO-TAX 5-6, 120 h, read-out: IC50 CHO TAX 5-6. On the procedure: as §1, §2, §3
The next experiment has as its system CHO VV 3-2 cells. The experiment is described as follows: MTT cytotoxicity on vinblastine- and colchicine-resistant CHO cells expressing mutated tubulin. As to conditions: Cricetulus griseus, CHO-VV 3-2, 120 h, read-out: IC50 CHO VV 3-2. On the procedure:
as §1, §2, §3

As to `COc1cc2c(c(OC)c1OC)-c1ccc(OC)c(=O)cc1[C@@H](NC(C)=O)CC2` [Colchicine, reference compound], the half-inhibitory concentration (IC50) (in general, the point on the concentration scale where inhibition reaches its midpoint) came to 2 ± 0.3 nM in experiment [1], 0.6 ± 0.01 nM with CHO TAX 5-6 cells and 3.6 ± 0.6 nM in the experiment on CHO VV 3-2 cells.
